Measured values published in article PMC3365040.

Sequences of proteins named here, by UniProt entry; tags and fusion partners are left off. Residues count along the entry.
UniProt P12956: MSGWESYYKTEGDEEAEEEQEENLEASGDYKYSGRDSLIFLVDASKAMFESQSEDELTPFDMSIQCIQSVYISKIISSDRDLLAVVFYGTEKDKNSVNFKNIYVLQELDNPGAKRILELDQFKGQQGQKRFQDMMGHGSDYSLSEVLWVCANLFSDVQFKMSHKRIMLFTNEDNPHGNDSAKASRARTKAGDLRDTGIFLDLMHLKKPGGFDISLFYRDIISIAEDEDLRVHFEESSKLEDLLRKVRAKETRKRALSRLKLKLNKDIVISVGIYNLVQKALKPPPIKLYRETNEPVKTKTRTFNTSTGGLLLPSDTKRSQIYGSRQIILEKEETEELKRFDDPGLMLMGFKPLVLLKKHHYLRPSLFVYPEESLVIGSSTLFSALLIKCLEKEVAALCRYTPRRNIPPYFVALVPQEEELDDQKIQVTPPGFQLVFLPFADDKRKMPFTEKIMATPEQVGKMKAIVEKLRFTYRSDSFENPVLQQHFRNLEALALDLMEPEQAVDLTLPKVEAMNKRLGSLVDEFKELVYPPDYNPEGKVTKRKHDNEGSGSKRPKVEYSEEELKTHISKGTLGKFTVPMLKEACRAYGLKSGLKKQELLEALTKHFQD
UniProt P11387: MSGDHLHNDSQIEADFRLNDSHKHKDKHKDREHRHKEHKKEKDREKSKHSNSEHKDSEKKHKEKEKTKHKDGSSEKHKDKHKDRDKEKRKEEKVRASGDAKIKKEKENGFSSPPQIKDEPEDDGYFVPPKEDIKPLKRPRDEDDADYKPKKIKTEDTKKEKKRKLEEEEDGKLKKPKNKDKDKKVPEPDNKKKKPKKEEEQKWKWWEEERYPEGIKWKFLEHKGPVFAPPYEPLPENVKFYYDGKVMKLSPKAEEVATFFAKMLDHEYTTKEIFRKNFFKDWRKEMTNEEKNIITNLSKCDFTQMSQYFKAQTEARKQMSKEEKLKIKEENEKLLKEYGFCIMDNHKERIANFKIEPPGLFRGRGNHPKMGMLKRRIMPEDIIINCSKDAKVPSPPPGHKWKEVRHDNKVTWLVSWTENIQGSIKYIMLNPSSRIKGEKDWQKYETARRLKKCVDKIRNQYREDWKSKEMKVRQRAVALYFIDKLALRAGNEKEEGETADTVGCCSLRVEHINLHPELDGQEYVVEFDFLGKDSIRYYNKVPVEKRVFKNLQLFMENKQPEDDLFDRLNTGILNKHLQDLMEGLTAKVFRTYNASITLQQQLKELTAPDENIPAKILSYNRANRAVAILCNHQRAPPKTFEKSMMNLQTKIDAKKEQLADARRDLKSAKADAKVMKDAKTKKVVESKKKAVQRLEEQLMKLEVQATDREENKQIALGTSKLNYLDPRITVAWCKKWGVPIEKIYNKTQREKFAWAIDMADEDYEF
UniProt Q02880: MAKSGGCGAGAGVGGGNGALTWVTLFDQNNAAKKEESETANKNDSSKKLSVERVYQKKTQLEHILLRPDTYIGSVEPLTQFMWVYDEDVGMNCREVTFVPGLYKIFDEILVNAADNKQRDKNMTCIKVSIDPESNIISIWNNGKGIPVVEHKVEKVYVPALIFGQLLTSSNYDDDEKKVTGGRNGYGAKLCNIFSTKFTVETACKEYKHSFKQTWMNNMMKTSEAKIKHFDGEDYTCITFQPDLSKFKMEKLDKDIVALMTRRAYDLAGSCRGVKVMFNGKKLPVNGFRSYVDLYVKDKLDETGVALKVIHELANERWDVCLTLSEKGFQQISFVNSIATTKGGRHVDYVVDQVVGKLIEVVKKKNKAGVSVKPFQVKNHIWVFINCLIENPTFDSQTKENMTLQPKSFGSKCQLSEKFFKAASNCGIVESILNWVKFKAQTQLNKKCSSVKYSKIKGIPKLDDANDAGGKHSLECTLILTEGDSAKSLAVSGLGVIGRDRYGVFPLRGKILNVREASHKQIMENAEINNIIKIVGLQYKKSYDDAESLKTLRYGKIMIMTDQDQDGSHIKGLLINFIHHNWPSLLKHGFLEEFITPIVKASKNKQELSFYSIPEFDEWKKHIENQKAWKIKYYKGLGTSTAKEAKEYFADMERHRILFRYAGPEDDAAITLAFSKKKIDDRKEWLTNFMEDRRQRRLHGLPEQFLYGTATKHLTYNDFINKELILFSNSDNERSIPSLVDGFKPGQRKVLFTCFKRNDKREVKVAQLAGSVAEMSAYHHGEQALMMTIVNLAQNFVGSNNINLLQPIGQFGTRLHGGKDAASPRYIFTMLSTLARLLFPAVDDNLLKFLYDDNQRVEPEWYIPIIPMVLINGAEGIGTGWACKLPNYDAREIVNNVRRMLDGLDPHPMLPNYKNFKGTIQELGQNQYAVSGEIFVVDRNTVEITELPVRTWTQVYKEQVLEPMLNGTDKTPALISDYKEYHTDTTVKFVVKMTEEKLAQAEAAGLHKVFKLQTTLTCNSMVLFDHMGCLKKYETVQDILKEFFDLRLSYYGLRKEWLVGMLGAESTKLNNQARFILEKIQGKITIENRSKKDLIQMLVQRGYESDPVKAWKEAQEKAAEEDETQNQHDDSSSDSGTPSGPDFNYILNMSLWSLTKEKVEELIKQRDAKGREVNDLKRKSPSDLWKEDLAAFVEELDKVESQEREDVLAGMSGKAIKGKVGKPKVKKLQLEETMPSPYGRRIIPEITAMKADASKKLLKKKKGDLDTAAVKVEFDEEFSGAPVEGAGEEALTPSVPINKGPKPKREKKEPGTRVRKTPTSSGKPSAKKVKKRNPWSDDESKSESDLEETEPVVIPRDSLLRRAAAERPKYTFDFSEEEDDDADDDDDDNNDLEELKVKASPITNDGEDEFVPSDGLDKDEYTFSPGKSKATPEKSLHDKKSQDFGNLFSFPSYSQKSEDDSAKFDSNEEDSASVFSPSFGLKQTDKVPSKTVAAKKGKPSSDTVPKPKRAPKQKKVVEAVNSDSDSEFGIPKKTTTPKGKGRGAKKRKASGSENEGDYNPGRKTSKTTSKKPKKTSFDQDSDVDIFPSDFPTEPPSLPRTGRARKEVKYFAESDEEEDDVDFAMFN
UniProt P11142: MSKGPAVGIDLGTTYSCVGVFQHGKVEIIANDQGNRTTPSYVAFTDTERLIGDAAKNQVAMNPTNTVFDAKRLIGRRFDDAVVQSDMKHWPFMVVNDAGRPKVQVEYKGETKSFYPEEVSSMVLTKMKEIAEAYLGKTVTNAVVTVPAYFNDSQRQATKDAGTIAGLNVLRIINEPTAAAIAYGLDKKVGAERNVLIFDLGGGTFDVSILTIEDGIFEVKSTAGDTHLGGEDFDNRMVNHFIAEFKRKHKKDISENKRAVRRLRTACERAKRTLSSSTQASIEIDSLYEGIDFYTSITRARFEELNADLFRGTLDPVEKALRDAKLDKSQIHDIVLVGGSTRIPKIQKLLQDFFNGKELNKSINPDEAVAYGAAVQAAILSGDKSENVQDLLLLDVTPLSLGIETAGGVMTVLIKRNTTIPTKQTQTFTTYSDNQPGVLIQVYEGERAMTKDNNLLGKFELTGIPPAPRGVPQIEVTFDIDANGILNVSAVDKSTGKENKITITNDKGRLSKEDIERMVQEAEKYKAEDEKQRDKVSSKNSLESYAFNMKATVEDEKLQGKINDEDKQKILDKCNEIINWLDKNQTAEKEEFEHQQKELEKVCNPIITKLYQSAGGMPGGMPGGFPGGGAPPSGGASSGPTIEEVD
UniProt P07305: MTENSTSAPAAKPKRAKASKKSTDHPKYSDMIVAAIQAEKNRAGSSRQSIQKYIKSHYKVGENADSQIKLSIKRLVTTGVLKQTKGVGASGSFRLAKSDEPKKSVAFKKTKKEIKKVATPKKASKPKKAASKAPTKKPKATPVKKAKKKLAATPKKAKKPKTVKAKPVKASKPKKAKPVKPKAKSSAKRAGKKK
UniProt P23284, residues 34-216: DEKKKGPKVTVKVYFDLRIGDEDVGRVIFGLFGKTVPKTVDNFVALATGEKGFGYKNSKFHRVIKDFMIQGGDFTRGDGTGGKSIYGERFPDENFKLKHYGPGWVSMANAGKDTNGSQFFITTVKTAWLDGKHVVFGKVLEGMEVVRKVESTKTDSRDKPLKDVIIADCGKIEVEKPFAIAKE
UniProt P09874: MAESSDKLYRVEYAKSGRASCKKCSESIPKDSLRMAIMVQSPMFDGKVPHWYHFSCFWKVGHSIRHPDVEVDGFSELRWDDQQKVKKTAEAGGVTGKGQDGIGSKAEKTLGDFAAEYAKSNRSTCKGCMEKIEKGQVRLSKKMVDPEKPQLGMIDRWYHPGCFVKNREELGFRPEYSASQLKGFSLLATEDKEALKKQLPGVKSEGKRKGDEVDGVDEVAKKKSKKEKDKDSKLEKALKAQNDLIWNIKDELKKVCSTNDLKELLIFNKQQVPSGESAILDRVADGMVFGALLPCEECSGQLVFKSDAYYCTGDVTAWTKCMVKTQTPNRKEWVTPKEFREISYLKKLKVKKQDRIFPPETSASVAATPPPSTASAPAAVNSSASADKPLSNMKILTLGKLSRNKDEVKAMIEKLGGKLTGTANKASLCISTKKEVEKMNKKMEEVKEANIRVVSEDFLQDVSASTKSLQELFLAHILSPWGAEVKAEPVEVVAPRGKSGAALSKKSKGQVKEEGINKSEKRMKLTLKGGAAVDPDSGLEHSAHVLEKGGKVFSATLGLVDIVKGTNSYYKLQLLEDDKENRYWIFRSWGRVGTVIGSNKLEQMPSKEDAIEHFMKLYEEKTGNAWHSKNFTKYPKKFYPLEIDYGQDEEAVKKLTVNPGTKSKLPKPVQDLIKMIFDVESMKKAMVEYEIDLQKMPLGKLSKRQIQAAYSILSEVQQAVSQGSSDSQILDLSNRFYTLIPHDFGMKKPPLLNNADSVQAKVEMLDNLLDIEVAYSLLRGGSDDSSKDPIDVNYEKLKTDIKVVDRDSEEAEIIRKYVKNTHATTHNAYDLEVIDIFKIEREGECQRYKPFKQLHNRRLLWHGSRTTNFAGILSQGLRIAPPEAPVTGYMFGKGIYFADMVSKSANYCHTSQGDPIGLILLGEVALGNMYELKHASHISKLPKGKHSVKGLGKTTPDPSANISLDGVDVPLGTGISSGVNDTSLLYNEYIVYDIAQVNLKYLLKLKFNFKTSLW
UniProt P35637: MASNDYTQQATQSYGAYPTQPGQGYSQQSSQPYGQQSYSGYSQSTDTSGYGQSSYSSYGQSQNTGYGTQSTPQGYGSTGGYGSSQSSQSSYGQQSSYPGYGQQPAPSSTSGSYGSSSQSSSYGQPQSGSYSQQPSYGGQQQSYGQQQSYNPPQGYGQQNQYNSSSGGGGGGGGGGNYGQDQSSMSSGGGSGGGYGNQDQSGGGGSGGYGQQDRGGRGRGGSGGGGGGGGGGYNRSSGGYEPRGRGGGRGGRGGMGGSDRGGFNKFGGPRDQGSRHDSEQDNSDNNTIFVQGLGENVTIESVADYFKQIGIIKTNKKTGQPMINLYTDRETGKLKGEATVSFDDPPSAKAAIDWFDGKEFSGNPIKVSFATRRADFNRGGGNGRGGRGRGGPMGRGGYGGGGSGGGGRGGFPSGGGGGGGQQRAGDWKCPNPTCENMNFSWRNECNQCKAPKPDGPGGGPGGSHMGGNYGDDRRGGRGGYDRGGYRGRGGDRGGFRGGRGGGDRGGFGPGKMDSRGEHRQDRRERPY
UniProt P18754: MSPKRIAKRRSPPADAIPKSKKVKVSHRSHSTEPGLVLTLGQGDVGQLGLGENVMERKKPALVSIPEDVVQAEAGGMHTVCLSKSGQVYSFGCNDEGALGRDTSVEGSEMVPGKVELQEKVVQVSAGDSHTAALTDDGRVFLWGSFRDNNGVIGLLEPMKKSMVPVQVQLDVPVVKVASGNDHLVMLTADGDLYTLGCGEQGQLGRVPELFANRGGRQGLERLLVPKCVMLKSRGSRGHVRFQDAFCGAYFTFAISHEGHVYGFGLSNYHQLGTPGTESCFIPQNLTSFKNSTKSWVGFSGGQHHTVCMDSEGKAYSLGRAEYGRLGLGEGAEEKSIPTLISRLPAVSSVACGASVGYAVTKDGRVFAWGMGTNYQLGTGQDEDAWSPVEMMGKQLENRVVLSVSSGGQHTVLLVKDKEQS
UniProt Q07955: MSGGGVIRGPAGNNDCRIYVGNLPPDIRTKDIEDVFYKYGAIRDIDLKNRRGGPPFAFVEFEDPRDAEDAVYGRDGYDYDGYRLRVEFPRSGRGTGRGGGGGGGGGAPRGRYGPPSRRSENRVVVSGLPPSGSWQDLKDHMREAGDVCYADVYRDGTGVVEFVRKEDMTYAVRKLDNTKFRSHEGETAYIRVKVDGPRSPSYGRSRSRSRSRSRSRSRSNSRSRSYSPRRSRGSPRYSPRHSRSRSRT
UniProt Q13242: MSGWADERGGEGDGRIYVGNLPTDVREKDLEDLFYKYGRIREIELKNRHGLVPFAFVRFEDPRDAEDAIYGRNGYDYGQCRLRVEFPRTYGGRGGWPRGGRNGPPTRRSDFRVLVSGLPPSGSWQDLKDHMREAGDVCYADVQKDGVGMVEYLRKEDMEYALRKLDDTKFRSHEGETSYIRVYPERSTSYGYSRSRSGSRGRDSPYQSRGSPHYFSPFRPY

T1: C-terminal FLAG-tagged COUP-TFII (pIRES-COUP-TFII-FLAG), expressed in MCF-7 cells (human) (UniProt P24468)
T1 sequence: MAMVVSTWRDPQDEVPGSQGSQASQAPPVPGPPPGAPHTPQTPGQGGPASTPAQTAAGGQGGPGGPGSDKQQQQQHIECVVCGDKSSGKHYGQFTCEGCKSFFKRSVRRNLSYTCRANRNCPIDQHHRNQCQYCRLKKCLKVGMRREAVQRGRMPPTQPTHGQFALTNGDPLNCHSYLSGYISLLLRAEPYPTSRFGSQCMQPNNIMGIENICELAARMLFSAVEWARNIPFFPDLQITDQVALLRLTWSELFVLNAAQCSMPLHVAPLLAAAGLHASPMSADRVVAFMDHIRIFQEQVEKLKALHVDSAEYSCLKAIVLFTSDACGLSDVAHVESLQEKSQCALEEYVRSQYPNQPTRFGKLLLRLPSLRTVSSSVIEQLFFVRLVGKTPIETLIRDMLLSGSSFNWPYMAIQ

B1: Nonhistone chromosomal protein HMG 14 (protein, UniProt P05114 1-100)
chain: MPKRKVSSAEGAAKEEPKRRSARLSAKPPAKVEAKPKKAAAKDKSSDKKVQTKGKRGAKGKQAEVANQETKEDLPAENGETKTEESPASDEAGEKEAKSD
B2: Splicing factor, arginine/serine-rich 7 (protein, UniProt Q16629 1-238)
chain: MSRYGRYGGETKVYVGNLGTGAGKGELERAFSYYGPLRTVWIARNPPGFAFVEFEDPRDAEDAVRGLDGKVICGSRVRVELSTGMPRRSRFDRPPARRPFDPNDRCYECGEKGHYAYDCHRYSRRRRSRSRSRSHSRSRGRRYSRSRSRSRGRRSRSASPRRSRSISLRRSRSASLRRSRSGSIKGSRYFQSPSRSRSRSRSISRPRSSRSKSRSPSPKRSRSPSGSPRRSASPERMD

molecular target: T1, C-terminal FLAG-tagged COUP-TFII (pIRES-COUP-TFII-FLAG), expressed in MCF-7 cells (human); assay: affinity purification with mass spectrometry; 1 mg whole cell extract of MCF-7 cells transfected 24 h with pIRES-COUP-TFII-FLAG on anti-FLAG M2 agarose, overnight (~16 h) at 4°C; serial elution with 0.1 M glycine pH 3.5 (15 min at room temperature, then 5 min at 95°C); MudPIT; proteins of the empty-vector control subtracted

Row | binding | Molecule
1 | binds | ATP-dependent DNA helicase 2 subunit 1 (from UniProt P12956 1-609)
2 | binds | ATP-dependent DNA helicase 2 subunit 2 (from UniProt P13010 1-732)
3 | binds | Antigen KI-67 (from UniProt P46013 1-3256)
4 | binds | DNA topoisomerase 1 (from UniProt P11387 1-765)
5 | binds | DNA topoisomerase 2-beta (TopoIIβ) (from UniProt Q02880 1-1626)
6 | binds | Heat shock cognate 71 kDa protein (from UniProt P11142 1-646)
7 | binds | Histone H1.0 (from UniProt P07305 1-194)
8 | binds | Peptidyl-prolyl cis-trans isomerase B (from UniProt P23284 34-216)
9 | binds | Poly [ADP-ribose] polymerase 1 (PARP-1) (from UniProt P09874 1-1014)
10 | binds | RNA-binding protein FUS (from UniProt P35637 1-526)
11 | binds | Regulator of chromosome condensation (from UniProt P18754 1-421)
12 | binds | Splicing factor, arginine/serine-rich 1 (from UniProt Q07955 1-248)
13 | binds | Splicing factor, arginine/serine-rich 9 (from UniProt Q13242 1-221)
14 | binds | B1
15 | binds | B2

These are yes or no findings as the source states them, for the method shown. Binding seen in cells or lysates may run through a third protein. Here binding means that the protein was enriched with, or labelled near, the bait; the list need not be complete. Where a sequence is shown, tags or fusion partners need not be part of it.
